For 1 compound, Papp A→B, Papp B→A and efflux ratio results are on record in paper PMC4111571 (Pharmaceutical research, 2012).

The series is described as follows: Caco-2 cell monolayer bidirectional transport study. The class given is in vitro ADME. The note with it: human, Caco-2, pH 7.4. On the technique in general: Passage across Caco-2 layers is used to estimate intestinal permeability.

The Papp A→B is the apparent permeability from the apical to the basolateral side of a cell layer. A word on the Papp B→A: it is how fast a substance crosses the layer from the basolateral side. As usually defined, the efflux ratio is a quotient of directional permeabilities that is used to spot active efflux.

`CC(C)NCC(O)COc1ccc(CC(N)=O)cc1` (stereo not drawn) [Atenolol]: the Papp A→B at 2 h, 100 µM turned out to be 31 ± 0.1 nm/s; the apparent permeability from basolateral to apical (Papp B→A) at 2 h, 100 µM was 19 ± 0.1 nm/s; the efflux ratio at 2 h, 100 µM stood at 0.61.
